In patent publication US12729225B2, “Non-canonical SWI/SNF complex and uses thereof” (Dana-Farber Cancer Institute, Inc., priority 2018, dated 2026) one finds Total and Unique data, which are given here for eight molecules.

For this data set, the system named is mSWI/SNF complexes. Put plainly: mSWI/SNF complex purification with HA-tagged baits and mass spectrometry (peptide counts). Set-up: species or system human. The settings on record: 293_HA-BRD7 bait purification, mass spectrometry; for Total: total peptide count per identified protein; for Unique: unique peptide count per identified protein.

B1: STK33 (protein, UniProt Q9BYT3 1-514, looked up)
Serine/threonine-protein …: MADSGLDKKSTKCPDCSSASQKDVLCVCSSKTRVPPVLVVEMSQTSSIGSAESLISLERKKEKNINRDITSRKDLPSRTSNVERKASQQQWGRGNFTEGKVPHIRIENGAAIEEIYTFGRILGKGSFGIVIEATDKETETKWAIKKVNKEKAGSSAVKLLEREVNILKSVKHEHIIHLEQVFETPKKMYLVMELCEDGELKEILDRKGHFSENETRWIIQSLASAIAYLHNNDIVHRDLKLENIMVKSSLIDDNNEINLNIKVTDFGLAVKKQSRSEAMLQATCGTPIYMAPEVISAHDYSQQCDIWSIGVVMYMLLRGEPPFLASSEEKLFELIRKGELHFENAVWNSISDCAKSVLKQLMKVDPAHRITAKELLDNQWLTGNKLSSVRPTNVLEMMKEWKNNPESVEENTTEEKNKPSTEEKLKSYQPWGNVPDANYTSDEEEEKQSTAYEKQFPATSKDNFDMCSSSFTSSKLLPAEIKGEMEKTPVTPSQGTATKYPAKSGALSRTKKKL
B1 gave a Total of 1 and a Unique of 1.

B2: TRIM37 (protein, UniProt O94972 1-964, looked up)
E3 ubiquitin-protein ligase …: MDEQSVESIAEVFRCFICMEKLRDARLCPHCSKLCCFSCIRRWLTEQRAQCPHCRAPLQLRELVNCRWAEEVTQQLDTLQLCSLTKHEENEKDKCENHHEKLSVFCWTCKKCICHQCALWGGMHGGHTFKPLAEIYEQHVTKVNEEVAKLRRRLMELISLVQEVERNVEAVRNAKDERVREIRNAVEMMIARLDTQLKNKLITLMGQKTSLTQETELLESLLQEVEHQLRSCSKSELISKSSEILMMFQQVHRKPMASFVTTPVPPDFTSELVPSYDSATFVLENFSTLRQRADPVYSPPLQVSGLCWRLKVYPDGNGVVRGYYLSVFLELSAGLPETSKYEYRVEMVHQSCNDPTKNIIREFASDFEVGECWGYNRFFRLDLLANEGYLNPQNDTVILRFQVRSPTFFQKSRDQHWYITQLEAAQTSYIQQINNLKERLTIELSRTQKSRDLSPPDNHLSPQNDDALETRAKKSACSDMLLEGGPTTASVREAKEDEEDEEKIQNEDYHHELSDGDLDLDLVYEDEVNQLDGSSSSASSTATSNTEENDIDEETMSGENDVEYNNMELEEGELMEDAAAAGPAGSSHGYVGSSSRISRRTHLCSAATSSLLDIDPLILIHLLDLKDRSSIENLWGLQPRPPASLLQPTASYSRKDKDQRKQQAMWRVPSDLKMLKRLKTQMAEVRCMKTDVKNTLSEIKSSSAASGDMQTSLFSADQAALAACGTENSGRLQDLGMELLAKSSVANCYIRNSTNKKSNSPKPARSSVAGSLSLRRAVDPGENSRSKGDCQTLSEGSPGSSQSGSRHSSPRALIHGSIGDILPKTEDRQCKALDSDAVVVAVFSGLPAVEKRRKMVTLGANAKGGHLEGLQMTDLENNSETGELQPVLPEGASAAPEEGMSSDSDIECDTENEEQEEHTSVGGFHDSFMVMTQPPDEDTHSSFPDGEQIGPEDLSFNTDENSGR
The molecule B2 had a Total of 1 and a Unique of 1.

B3: TDRKH (protein, UniProt Q9Y2W6 1-561, looked up)
Tudor and KH …: MSTERTSWTSLSTIQKIALGLGIPASATVAYILYRRYRESREERLTFVGEDDIEIEMRVPQEAVKLIIGRQGANIKQLRKQTGARIDVDTEDVGDERVLLISGFPVQVCKAKAAIHQILTENTPVSEQLSVPQRSVGRIIGRGGETIRSICKASGAKITCDKESEGTLLLSRLIKISGTQKEVAAAKHLILEKVSEDEELRKRIAHSAETRVPRKQPISVRREDMTEPGGAGEPALWKNTSSSMEPTAPLVTPPPKGGGDMAVVVSKEGSWEKPSDDSFQKSEAQAIPEMPMFEIPSPDFSFHADEYLEVYVSASEHPNHFWIQIVGSRSLQLDKLVNEMTQHYENSVPEDLTVHVGDIVAAPLPTNGSWYRARVLGTLENGNLDLYFVDFGDNGDCPLKDLRALRSDFLSLPFQAIECSLARIAPSGDQWEEEALDEFDRLTHCADWKPLVAKISSYVQTGISTWPKIYLYDTSNGKKLDIGLELVHKGYAIELPEDIEENRAVPDMLKDMATETDASLSTLLTETKKSSGEITHTLSCLSLSEAASMSGDDNLEDDYLL
For B3, the Total is on record as 1 and the Unique came to 1.

B4: KRT18 (protein, UniProt P05783 2-430, looked up)
Keratin, type I cytoskeletal …: SFTTRSTFSTNYRSLGSVQAPSYGARPVSSAASVYAGAGGSGSRISVSRSTSFRGGMGSGGLATGIAGGLAGMGGIQNEKETMQSLNDRLASYLDRVRSLETENRRLESKIREHLEKKGPQVRDWSHYFKIIEDLRAQIFANTVDNARIVLQIDNARLAADDFRVKYETELAMRQSVENDIHGLRKVIDDTNITRLQLETEIEALKEELLFMKKNHEEEVKGLQAQIASSGLTVEVDAPKSQDLAKIMADIRAQYDELARKNREELDKYWSQQIEESTTVVTTQSAEVGAAETTLTELRRTVQSLEIDLDSMRNLKASLENSLREVEARYALQMEQLNGILLHLESELAQTRAEGQRQAQEYEALLNIKVKLEAEIATYRRLLEDGEDFNLGDALDSSNSMQTIQKTTTRRIVDGKVVSETNDTKVLRH
Molecule B4 registered a Total of 1 and a Unique of 1.

B5: ##RASAL1 (protein, UniProt O95294 1-804, looked up)
RasGAP-activating-like …: MAKSSSLNVRVVEGRALPAKDVSGSSDPYCLVKVDDEVVARTATVWRSLGPFWGEEYTVHLPLDFHQLAFYVLDEDTVGHDDIIGKISLSREAITADPRGIDSWINLSRVDPDAEVQGEICLSVQMLEDGQGRCLRCHVLQARDLAPRDISGTSDPFARVFWGSQSLETSTIKKTRFPHWDEVLELREMPGAPSPLRVELWDWDMVGKNDFLGMVEFSPKTLQQKPPKGWFRLLPFPRAEEDSGGNLGALRVKVRLIEDRVLPSQCYQPLMELLMESVQGPAEEDTASPLALLEELTLGDCRQDLATKLVKLFLGRGLAGRFLDYLTRREVARTMDPNTLFRSNSLASKSMEQFMKLVGMPYLHEVLKPVISRVFEEKKYMELDPCKMDLGRTRRISFKGALSEEQMRETSLGLLTGYLGPIVDAIVGSVGRCPPAMRLAFKQLHRRVEERFPQAEHQDVKYLAISGFLFLRFFAPAILTPKLFDLRDQHADPQTSRSLLLLAKAVQSIGNLGQQLGQGKELWMAPLHPFLLQCVSRVRDFLDRLVDVDGDEAGVPARALFPPSAIVREGYLLKRKEEPAGLATRFAFKKRYVWLSGETLSFSKSPEWQMCHSIPVSHIRAVERVDEGAFQLPHVMQVVTQDGTGALHTTYLQCKNVNELNQWLSALRKASAPNPNKLAACHPGAFRSARWTCCLQAERSAAGCSRTHSAVTLGDWSDPLDPDAEAQTVYRQLLLGRDQLRLKLLEDSNMDTTLEADTGACPEVLARQRAATARLLEVLADLDRAHEEFQQQERGKAALGPLGP
On to B5, for which the Total worked out at 1 and the Unique turned out to be 1.

B6: MTDH (protein, UniProt Q86UE4 1-582, looked up)
Protein LYRIC: MAARSWQDELAQQAEEGSARLREMLSVGLGFLRTELGLDLGLEPKRYPGWVILVGTGALGLLLLFLLGYGWAAACAGARKKRRSPPRKREEAAAVPAAAPDDLALLKNLRSEEQKKKNRKKLSEKPKPNGRTVEVAEGEAVRTPQSVTAKQPPEIDKKNEKSKKNKKKSKSDAKAVQNSSRHDGKEVDEGAWETKISHREKRQQRKRDKVLTDSGSLDSTIPGIENTITVTTEQLTTASFPVGSKKNKGDSHLNVQVSNFKSGKGDSTLQVSSGLNENLTVNGGGWNEKSVKLSSQISAGEEKWNSVSPASAGKRKTEPSAWSQDTGDANTNGKDWGRSWSDRSIFSGIGSTAEPVSQSTTSDYQWDVSRNQPYIDDEWSGLNGLSSADPNSDWNAPAEEWGNWVDEERASLLKSQEPIPDDQKVSDDDKEKGEGALPTGKSKKKKKKKKKQGEDNSTAQDTEELEKEIREDLPVNTSKTRPKQEKAFSLKTISTSDPAEVLVKNSQPIKTLPPATSTEPSVILSKSDSDKSSSQVPPILQETDKSKSNTKQNSVPPSQTKSETSWESPKQIKKKKKARRET
Molecule B6 gave a Total of 1 and a Unique of 1.

B7: EIF4G2 (protein, UniProt P78344 1-907, looked up)
Eukaryotic translation …: MESAIAEGGASRFSASSGGGGSRGAPQHYPKTAGNSEFLGKTPGQNAQKWIPARSTRRDDNSAANNSANEKERHDAIFRKVRGILNKLTPEKFDKLCLELLNVGVESKLILKGVILLIVDKALEEPKYSSLYAQLCLRLAEDAPNFDGPAAEGQPGQKQSTTFRRLLISKLQDEFENRTRNVDVYDKRENPLLPEEEEQRAIAKIKMLGNIKFIGELGKLDLIHESILHKCIKTLLEKKKRVQLKDMGEDLECLCQIMRTVGPRLDHERAKSLMDQYFARMCSLMLSKELPARIRFLLQDTVELREHHWVPRKAFLDNGPKTINQIRQDAVKDLGVFIPAPMAQGMRSDFFLEGPFMPPRMKMDRDPLGGLADMFGQMPGSGIGTGPGVIQDRFSPTMGRHRSNQLFNGHGGHIMPPTQSQFGEMGGKFMKSQGLSQLYHNQSQGLLSQLQGQSKDMPPRFSKKGQLNADEISLRPAQSFLMNKNQVPKLQPQITMIPPSAQPPRTQTPPLGQTPQLGLKTNPPLIQEKPAKTSKKPPPSKEELLKLTETVVTEYLNSGNANEAVNGVREMRAPKHFLPEMLSKVIILSLDRSDEDKEKASSLISLLKQEGIATSDNFMQAFLNVLDQCPKLEVDIPLVKSYLAQFAARAIISELVSISELAQPLESGTHFPLFLLCLQQLAKLQDREWLTELFQQSKVNMQKMLPEIDQNKDRMLEILEGKGLSFLFPLLKLEKELLKQIKLDPSPQTIYKWIKDNISPKLHVDKGFVNILMTSFLQYISSEVNPPSDETDSSSAPSKEQLEQEKQLLLSFKPVMQKFLHDHVDLQVSALYALQVHCYNSNFPKGMLLRFFVHFYDMEIIEEEAFLAWKEDITQEFPGKGKALFQVNQWLTWLETAEEEESEEEAD
The molecule B7 showed a Total of 1 and a Unique of 1.

B8: FCF1 (protein, UniProt Q9Y324 1-198, looked up)
rRNA-processing protein FCF1 …: MGKQKKTRKYATMKRMLSLRDQRLKEKDRLKPKKKEKKDPSALKEREVPQHPSCLFFQYNTQLGPPYHILVDTNFINFSIKAKLDLVQSMMDCLYAKCIPCITDCVMAEIEKLGQKYRVALRIAKDPRFERLPCTHKGTYADDCLVQRVTQHKCYIVATVDRDLKRRIRKIPGVPIMYISNHRYNIERMPDDYGAPRF
Consider B8, for which the Total was determined as 1 and the Unique was 1.
